# Measured values: patent publication US20250066503A1, “CELL INJURY INDUCING THERAPEUTIC DRUG FOR USE IN CANCER THERAPY” (CHUGAI SEIYAKU KABUSHIKI KAISHA, priority 2016, published 2025)
# Test system: extracellular matrix (BD Matrigel)
# Experiment: Assessment of the ECM-binding ability (ECL on BD Matrigel)
# Conditions: fluorescence intensity relative to standard antibody MRAH-G1d/MRAL-k0
row,Molecule,ECM binding ratio (standard = 1)
1,antibody-25: optimized anti-human CD3ε chain and anti-human GPC3 bispecific antibody (antibody) heavy 1: QVQLVESGGGLVQPGRSLRLSCAASGFTFSNAWMHWVRQAPGKGLEWVAQIKDKSQNYATYYAESVKGRFTISRDDSKNSLYLQMNSLKTEDTAVYYCRYVHYAASYGVDAWGQGTTVTVSSASTKGPSVFPLAPCSRSTSESTAALGCLVKDYFPEPVTVSWNSGALTSGVHTFPAVLQSSGLYSLSSVVTVPSSSLGTKTYTCNVDHKPSNTKVDKRVESKYGPPCPPCPAPEFRGGPKVFLFPPKPKDTLMISRTPEVTCVVVDVSQEDPEVQFNWYVDGVEVHNAKTKPREEQFASTYRVVSVLTVLHQDWLNGKEYKCKVSNKGLPSSIEKTISKAKGQPREPQVYTLPPSQKEMTKNQVSLTCLVKGFYPSDIAVEWESNGQPENNYKTTPPVLDSDGSFFLYSKLTVDKSRWQEGNVFSCSVMHEALHNRYTQKSLSLSP heavy 2: QVQLVQSGAEVKKPGASVTVSCKASGYTFTDYEMHWIRQPPGEGLEWIGAIDGETPDTAYSEKFKGRVTLTADKSTSTAYMELSSLTSEDTAVYYCTRFYSYTYWGQGTLVTVSSASTKGPSVFPLAPCSRSTSESTAALGCLVKDYFPEPVTVSWNSGALTSGVHTFPAVLQSSGLYSLSSVVTVPSSSLGTQTYTCNVDHKPSNTKVDKRVESKYGPPCPPCPAPEFRGGPKVFLFPPKPKDTLMISRTPEVTCVVVDVSQEDPEVQFNWYVDGVEVHNAKTKPREEQFASTYRVVSVLTVLHQDWLNGKEYKCKVSNKGLPSSIEKTISKAKGQPREPQVYTLPPSQEEMTKNQVSLTCLVKGFYPSDIAVEWESNGQPENNYKTTPPVLDSDGSFFLYSKLTVDKSRWQEGNVFSCSVMHEALHNHYTQESLSLSP light: DIVMTQSPLSLPVTPGEPASISCRSSQPPVHSNRNTYLHWYQQKPGQAPRLLIYKVSNRFSGVPDRFSGSGSGTDFTLKISRVEAEDVGVYYCGQGTQVPYTFGQGTKLEIKRTVAAPSVFIFPPSDEQLKSGTASVVCLLNNFYPREAKVQWKVDNALQSGNSQESVTEQDSKDSTYSLSSTLTLSKADYEKHKVYACEVTHQGLSSPVTKSFNRGEC,0.5
2,antibody-34: optimized anti-human CD3ε chain and anti-human GPC3 bispecific antibody (antibody) heavy 1: QVQLVESGGGLVQPGRSLRLSCAASGFTFSNAWMHWVRQAPGKGLEWVAQIKDKSQNYATYVAESVKGRFTISRDDSKNSLYLQMNSLKTEDTAVYYCRYVHYAAGYGVDAWGQGTTVTVSSASTKGPSVFPLAPCSRSTSESTAALGCLVKDYFPEPVTVSWNSGALTSGVHTFPAVLQSSGLYSLSSVVTVPSSSLGTKTYTCNVDHKPSNTKVDKRVESKYGPPCPPCPAPEFRGGPKVFLFPPKPKDTLMISRTPEVTCVVVDVSQEDPEVQFNWYVDGVEVHNAKTKPREEQFASTYRVVSVLTVLHQDWLNGKEYKCKVSNKGLPSSIEKTISKAKGQPREPQVYTLPPSQKEMTKNQVSLTCLVKGFYPSDIAVEWESNGQPENNYKTTPPVLDSDGSFFLYSKLTVDKSRWQEGNVFSCSVMHEALHNRYTQKSLSLSP heavy 2: QVQLVQSGAEVKKPGASVTVSCKASGYTFTDYEMHWVRQAPGEGLEWMGAIDGETPDTAYSEKFKGRVTLTADKSTSTAYMELSSLTSEDTAVYYCTRFYSYTYWGQGTLVTVSSASTKGPSVFPLAPCSRSTSESTAALGCLVKDYFPEPVTVSWNSGALTSGVHTFPAVLQSSGLYSLSSVVTVPSSSLGTQTYTCNVDHKPSNTKVDKRVESKYGPPCPPCPAPEFRGGPKVFLFPPKPKDTLMISRTPEVTCVVVDVSQEDPEVQFNWYVDGVEVHNAKTKPREEQFASTYRVVSVLTVLHQDWLNGKEYKCKVSNKGLPSSIEKTISKAKGQPREPQVYTLPPSQEEMTKNQVSLTCLVKGFYPSDIAVEWESNGQPENNYKTTPPVLDSDGSFFLYSKLTVDKSRWQEGNVFSCSVMHEALHNHYTQESLSLSP light: DIVMTQSPLSLPVTPGEPASISCRSSQPLVHSNRNTYLHWYQQKPGQAPRLLIYKVSNRFSGVPDRFSGSGSGTDFTLKISRVEAEDVGVYYCGQGTQVPYTFGQGTKLEIKRTVAAPSVFIFPPSDEQLKSGTASVVCLLNNFYPREAKVQWKVDNALQSGNSQESVTEQDSKDSTYSLSSTLTLSKADYEKHKVYACEVTHQGLSSPVTKSFNRGEC,0.4
3,"antibody-38: anti-human CD3ε chain and anti-human GPC3 bispecific antibody; H chains SEQ ID NO: 385 and 402, common L chains SEQ ID NO: 410 (antibody, An artificially generated sequence) heavy 1: QVQLVQSGAEVKKPGASVTVSCKASGYTFTDYEMHWIRQPPGEGLEWIGAIDGPTPDTAYSEKFKGRVTLTADKSTSTAYMELSSLTSEDTAVYYCTRFYSYTYWGQGTLVTVSSASTKGPSVFPLAPCSRSTSESTAALGCLVKDYFPEPVTVSWNSGALTSGVHTFPAVLQSSGLYSLSSVVTVPSSSLGTQTYTCNVDHKPSNTKVDKRVESKYGPPCPPCPAPEFRGGPKVFLFPPKPKDTLMISRTPEVTCVVVDVSQEDPEVQFNWYVDGVEVHNAKTKPREEQFASTYRVVSVLTVLHQDWLNGKEYKCKVSNKGLPSSIEKTISKAKGQPREPQVYTLPPSQEEMTKNQVSLTCLVKGFYPSDIAVEWESNGQPENNYKTTPPVLDSDGSFFLYSKLTVDKSRWQEGNVFSCSVMHEALHNHYTQESLSLSP heavy 2: QVQLVESGGGVVQPGGSLRLSCAASGFTFSNAWMHWVRQAPGKGLEWVAQIKDKSQNYATYVAESVKGRFTISRADSKNSIYLQMNSLKTEDTAVYYCRYVHYAAGYGVDIWGQGTTVTVSSASTKGPSVFPLAPCSRSTSESTAALGCLVKDYFPEPVTVSWNSGALTSGVHTFPAVLQSSGLYSLSSVVTVPSSSLGTKTYTCNVDHKPSNTKVDKRVESKYGPPCPPCPAPEFRGGPKVFLFPPKPKDTLMISRTPEVTCVVVDVSQEDPEVQFNWYVDGVEVHNAKTKPREEQFASTYRVVSVLTVLHQDWLNGKEYKCKVSNKGLPSSIEKTISKAKGQPREPQVYTLPPSQKEMTKNQVSLTCLVKGFYPSDIAVEWESNGQPENNYKTTPPVLDSDGSFFLYSKLTVDKSRWQEGNVFSCSVMHEALHNHYTQKSLSLSP light: DIVMTQSPLSLPVTPGEPASISCRSSQPLVHSNRNTYLHWYQQKPGQAPRLLIYKVSNRFSGVPDRFSGSGSGTDFTLKISRVEAEDVGVYYCGQGTQVPYTFGQGTKLEIKRTVAAPSVFIFPPSDEQLKSGTASVVCLLNNFYPREAKVQWKVDNALQSGNSQESVTEQDSKDSTYSLSSTLTLSKADYEKHKVYACEVTHQGLSSPVTKSFNRGEC",0.3
4,antibody-1: anti-human CD3ε chain and anti-human GPC3 bispecific antibody (antibody) heavy: EVQLVETGGSLVQPGKSLKLTCATSGFTFSNAWMHWVRQSPEKQLEWVAQIKAKSNNYATYYAESVKGRFTISRDDSKSNIYLQMNSLKEEDTAVYYCRYVHYGAYYGVDAWGQGTSVTVSSASTKGPSVFPLAPSSKSTSGGTAALGCLVKDYFPEPVTVSWNSGALTSGVHTFPAVLQSSGLYSLSSVVTVPSSSLGTQTYICNVNHKPSNTKVDKKVEPKSCDKTHTCPPCPAPEAAGGPSVFLFPPKPKDTLMISRTPEVTCVVVDVSHEDPEVKFNWYVDGVEVHNAKTKPREEQYASTYRVVSVLTVLHQDWLNGKEYKCKVSNKALPAPIEKTISKAKGQPREPQVYTLPPSRCELTKNQVSLSCAVKGFYPSDIAVEWESNGQPENNYKTTPPVLDSDGSFFLVSKLTVDKSRWQQGNVFSCSVMHEALHNHYTQKSLSLSPDYKDDDDK light: DVVMTQTPVSMSVSLGGQVSISCRSSQSLVHNNGNTYVSWYIQKPSQSPQLLIYKVSNRFSGISDRFSGSGSGTDFTLKISRVEPDDLGVYYCGQGTQDPYTFGAGTKLELKRTVAAPSVFIFPPSDEQLKSGTASVVCLLNNFYPREAKVQWKVDNALQSGNSQESVTEQDSKDSTYSLSSTLTLSKADYEKHKVYACEVTHQGLSSPVTKSFNRGEC chain 1: DIVMTQSPLSLPVTPGEPASISCRSSQSLVHSNRNTYLHWYQQKPGQAPRLLIYKVSNRFSGVPDRFSGSGSGTDFTLKISRVEAEDVGVYYCSQNTHVPPTFGQGTKLEIKSSASTKGPSVFPLAPSSKSTSGGTAALGCLVKDYFPEPVTVSWNSGALTSGVHTFPAVLQSSGLYSLSSVVTVPSSSLGTQTYICNVNHKPSNTKVDKKVEPKSCDKTHTCPPCPAPEAAGGPSVFLFPPKPKDTLMISRTPEVTCVVVDVSHEDPEVKFNWYVDGVEVHNAKTKPREEQYASTYRVVSVLTVLHQDWLNGKEYKCKVSNKALPAPIEKTISKAKGQPREPQVCTLPPSRDELTKNQVSLWCLVKGFYPSDIAVEWESNGQPENNYKTTPPVLDSDGSFFLYSKLTVDKSRWQQGNVFSCSVMHEALHNHYTQKSLSLSPHHHHHHHH chain 2: QVQLVQSGAEVKKPGASVKVSCKASGYTFTDYEMHWIRQPPGQGLEWIGAIDPKTGDTAYSQKFKGRVTLTADKSTSTAYMELSSLTSEDTAVYYCTRFYSYTYWGQGTLVTVSSASVAAPSVFIFPPSDEQLKSGTASVVCLLNNFYPREAKVQWKVDNALQSGNSQESVTEQDSKDSTYSLSSTLTLSKADYEKHKVYACEVTHQGLSSPVTKSFNRGEC,4.0
